Experimental data reported in the supplement of paper PMC12067093, “Discovery and optimisation of a covalent ligand for TRIM25 and its application to targeted protein ubiquitination” (Chemical Science, 2025).
The other results are listed elsewhere or left out.

Sequences of proteins named here, by UniProt entry; tags and fusion partners are left off. A change or cut given only in a name is not applied to a line headed by its entry.
UniProt Q92747, whole entry, looked up: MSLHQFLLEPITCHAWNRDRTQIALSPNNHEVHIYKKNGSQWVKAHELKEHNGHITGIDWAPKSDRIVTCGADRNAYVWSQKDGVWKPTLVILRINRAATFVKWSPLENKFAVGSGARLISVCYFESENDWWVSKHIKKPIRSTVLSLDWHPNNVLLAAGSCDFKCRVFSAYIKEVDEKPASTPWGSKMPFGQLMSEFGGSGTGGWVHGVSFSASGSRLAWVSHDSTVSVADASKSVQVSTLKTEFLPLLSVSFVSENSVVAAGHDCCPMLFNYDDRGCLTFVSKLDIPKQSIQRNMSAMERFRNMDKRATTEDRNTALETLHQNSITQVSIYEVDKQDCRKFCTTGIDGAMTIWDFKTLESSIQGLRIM
UniProt P07741: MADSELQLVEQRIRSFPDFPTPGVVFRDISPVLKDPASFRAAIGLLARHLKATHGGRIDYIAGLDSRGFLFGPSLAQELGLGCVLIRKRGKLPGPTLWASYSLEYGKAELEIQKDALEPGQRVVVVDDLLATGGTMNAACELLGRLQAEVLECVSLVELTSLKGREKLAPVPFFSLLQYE
UniProt P05067, whole entry, looked up: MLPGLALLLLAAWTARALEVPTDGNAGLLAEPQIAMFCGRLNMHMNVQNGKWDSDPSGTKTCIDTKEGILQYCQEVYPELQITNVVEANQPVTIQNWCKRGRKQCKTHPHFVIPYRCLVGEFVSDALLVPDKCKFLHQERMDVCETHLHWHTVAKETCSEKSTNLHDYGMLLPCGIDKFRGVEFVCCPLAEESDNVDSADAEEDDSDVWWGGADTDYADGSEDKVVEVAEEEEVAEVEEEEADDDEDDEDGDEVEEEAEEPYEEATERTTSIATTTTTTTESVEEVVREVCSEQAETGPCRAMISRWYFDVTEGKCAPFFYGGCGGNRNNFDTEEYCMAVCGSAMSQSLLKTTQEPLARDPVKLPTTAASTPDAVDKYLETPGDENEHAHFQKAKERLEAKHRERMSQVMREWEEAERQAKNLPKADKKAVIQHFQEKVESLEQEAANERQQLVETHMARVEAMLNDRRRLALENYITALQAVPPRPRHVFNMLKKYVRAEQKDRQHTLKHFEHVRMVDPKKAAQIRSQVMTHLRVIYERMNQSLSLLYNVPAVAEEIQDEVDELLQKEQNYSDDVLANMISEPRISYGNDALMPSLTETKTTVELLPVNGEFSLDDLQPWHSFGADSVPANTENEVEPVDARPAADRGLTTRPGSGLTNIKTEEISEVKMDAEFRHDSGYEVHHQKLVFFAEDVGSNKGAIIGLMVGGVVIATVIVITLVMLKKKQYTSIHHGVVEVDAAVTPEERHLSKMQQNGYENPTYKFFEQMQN
UniProt Q8TER5, whole entry, looked up: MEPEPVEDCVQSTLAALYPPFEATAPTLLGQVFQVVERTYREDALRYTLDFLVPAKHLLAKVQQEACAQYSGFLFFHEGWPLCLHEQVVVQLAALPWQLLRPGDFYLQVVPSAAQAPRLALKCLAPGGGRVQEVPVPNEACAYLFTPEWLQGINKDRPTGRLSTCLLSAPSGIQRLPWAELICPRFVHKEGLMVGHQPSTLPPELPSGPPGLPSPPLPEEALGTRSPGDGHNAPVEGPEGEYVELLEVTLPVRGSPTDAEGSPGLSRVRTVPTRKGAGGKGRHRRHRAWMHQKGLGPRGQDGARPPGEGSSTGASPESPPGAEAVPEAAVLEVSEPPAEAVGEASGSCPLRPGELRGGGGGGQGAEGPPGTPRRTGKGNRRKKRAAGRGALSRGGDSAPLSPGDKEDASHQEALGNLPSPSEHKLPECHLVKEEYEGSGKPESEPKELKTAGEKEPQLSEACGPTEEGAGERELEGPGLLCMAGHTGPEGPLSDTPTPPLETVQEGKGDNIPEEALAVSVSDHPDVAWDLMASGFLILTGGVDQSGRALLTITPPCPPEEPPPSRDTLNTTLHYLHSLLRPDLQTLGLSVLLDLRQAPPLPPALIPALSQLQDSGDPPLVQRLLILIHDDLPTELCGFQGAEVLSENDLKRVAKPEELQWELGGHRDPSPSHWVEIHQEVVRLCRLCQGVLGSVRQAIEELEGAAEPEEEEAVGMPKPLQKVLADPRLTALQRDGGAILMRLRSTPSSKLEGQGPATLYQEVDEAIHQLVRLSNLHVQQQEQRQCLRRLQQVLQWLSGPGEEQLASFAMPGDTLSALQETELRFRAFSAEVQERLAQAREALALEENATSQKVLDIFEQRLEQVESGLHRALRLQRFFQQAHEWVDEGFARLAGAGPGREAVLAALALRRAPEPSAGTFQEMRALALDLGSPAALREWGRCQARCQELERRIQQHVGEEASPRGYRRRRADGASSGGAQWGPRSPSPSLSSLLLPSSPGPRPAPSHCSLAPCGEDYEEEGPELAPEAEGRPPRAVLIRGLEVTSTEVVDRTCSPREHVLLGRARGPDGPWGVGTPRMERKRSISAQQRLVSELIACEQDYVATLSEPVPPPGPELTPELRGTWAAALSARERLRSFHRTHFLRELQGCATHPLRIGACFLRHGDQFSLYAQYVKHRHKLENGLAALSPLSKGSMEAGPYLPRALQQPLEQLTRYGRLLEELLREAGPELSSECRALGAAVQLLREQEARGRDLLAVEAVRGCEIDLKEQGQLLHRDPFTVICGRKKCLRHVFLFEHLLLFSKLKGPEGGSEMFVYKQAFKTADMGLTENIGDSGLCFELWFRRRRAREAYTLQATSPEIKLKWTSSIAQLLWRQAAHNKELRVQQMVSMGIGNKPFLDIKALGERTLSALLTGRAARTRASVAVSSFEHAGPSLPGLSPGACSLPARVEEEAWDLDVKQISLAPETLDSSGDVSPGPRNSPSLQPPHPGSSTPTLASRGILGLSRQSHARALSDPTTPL
UniProt P29374: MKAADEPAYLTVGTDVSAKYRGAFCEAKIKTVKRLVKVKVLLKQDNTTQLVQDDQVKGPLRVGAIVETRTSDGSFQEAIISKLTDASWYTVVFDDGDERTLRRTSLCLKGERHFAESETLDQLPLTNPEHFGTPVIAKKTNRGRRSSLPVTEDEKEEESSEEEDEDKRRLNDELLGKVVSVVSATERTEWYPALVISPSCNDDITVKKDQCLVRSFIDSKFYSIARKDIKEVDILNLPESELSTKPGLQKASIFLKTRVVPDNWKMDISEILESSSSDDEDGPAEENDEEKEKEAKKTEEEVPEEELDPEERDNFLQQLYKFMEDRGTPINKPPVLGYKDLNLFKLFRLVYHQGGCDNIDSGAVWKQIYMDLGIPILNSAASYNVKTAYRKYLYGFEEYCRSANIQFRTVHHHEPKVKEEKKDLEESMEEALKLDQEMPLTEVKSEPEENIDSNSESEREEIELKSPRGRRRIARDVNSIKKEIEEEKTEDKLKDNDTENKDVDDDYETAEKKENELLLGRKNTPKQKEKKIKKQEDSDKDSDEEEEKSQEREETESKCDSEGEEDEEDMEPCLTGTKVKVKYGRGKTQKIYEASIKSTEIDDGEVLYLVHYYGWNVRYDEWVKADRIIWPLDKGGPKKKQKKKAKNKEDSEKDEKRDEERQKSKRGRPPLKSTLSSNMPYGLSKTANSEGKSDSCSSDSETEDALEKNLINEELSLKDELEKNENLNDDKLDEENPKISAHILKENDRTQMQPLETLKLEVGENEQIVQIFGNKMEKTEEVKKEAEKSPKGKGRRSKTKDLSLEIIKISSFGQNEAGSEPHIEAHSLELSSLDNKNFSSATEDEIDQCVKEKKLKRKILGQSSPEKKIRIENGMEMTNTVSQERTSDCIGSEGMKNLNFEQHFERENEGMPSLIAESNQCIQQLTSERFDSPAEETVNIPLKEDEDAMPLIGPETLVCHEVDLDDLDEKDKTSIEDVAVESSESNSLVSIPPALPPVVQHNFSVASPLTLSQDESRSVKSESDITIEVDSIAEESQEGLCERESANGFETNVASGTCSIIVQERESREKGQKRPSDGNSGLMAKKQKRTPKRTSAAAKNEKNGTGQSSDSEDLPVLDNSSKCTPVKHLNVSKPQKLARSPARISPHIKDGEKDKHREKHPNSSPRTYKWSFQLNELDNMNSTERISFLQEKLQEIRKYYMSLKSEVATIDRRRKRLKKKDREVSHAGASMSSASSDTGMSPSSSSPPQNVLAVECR
UniProt Q7Z2E3: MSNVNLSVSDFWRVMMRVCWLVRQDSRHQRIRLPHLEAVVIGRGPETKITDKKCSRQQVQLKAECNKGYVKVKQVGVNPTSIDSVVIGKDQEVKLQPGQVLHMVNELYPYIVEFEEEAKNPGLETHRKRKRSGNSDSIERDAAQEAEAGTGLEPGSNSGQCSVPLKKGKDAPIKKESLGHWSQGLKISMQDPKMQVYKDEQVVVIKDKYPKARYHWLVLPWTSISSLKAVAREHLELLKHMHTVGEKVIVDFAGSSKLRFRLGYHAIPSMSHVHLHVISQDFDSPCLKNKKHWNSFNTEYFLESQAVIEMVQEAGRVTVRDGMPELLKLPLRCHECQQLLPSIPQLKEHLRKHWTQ
UniProt O15085: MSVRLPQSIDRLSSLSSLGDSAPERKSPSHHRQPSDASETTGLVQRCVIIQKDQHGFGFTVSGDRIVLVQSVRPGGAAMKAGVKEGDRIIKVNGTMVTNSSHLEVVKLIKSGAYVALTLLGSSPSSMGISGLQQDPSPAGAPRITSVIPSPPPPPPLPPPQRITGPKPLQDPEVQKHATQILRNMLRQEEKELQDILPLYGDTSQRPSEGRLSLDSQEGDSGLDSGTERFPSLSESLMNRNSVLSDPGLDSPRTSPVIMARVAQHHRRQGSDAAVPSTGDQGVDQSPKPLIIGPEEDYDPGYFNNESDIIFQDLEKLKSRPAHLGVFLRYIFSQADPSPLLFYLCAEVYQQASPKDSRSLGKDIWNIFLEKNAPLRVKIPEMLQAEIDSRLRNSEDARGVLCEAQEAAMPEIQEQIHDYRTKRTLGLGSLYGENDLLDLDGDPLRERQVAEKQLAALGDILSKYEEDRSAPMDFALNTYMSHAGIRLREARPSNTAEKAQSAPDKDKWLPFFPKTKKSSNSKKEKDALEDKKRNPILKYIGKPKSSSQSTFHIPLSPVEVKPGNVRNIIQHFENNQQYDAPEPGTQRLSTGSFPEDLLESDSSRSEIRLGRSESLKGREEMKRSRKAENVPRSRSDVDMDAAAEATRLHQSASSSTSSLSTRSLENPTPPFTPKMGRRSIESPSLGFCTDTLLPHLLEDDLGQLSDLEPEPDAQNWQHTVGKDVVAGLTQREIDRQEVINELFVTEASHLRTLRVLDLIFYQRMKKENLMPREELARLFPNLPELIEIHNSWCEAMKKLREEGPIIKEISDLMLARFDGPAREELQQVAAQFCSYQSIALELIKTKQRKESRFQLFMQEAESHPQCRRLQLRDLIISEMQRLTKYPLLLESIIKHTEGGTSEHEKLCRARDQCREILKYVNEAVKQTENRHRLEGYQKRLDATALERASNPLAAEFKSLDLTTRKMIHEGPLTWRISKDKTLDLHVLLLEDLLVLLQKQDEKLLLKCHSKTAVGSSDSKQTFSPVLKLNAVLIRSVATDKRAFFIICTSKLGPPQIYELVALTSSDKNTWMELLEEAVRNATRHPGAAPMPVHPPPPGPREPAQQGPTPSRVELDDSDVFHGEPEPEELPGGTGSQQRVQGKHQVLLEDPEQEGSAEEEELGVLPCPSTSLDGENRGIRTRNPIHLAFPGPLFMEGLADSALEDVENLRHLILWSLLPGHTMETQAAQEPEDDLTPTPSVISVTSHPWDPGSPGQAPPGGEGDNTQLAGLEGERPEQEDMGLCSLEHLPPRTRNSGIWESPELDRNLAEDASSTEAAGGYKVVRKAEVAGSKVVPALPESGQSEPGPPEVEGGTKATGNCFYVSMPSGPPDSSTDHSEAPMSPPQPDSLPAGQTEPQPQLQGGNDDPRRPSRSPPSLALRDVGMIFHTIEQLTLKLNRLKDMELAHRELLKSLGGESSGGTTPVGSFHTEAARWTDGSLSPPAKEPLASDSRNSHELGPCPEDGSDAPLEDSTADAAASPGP

Compound: Cc1cc(ccc1-c1ccccc1)C(=O)N1CCCN(CC1)C(=O)CCl [compound 10]
Assay: probe-labelled cysteine peptide fold change vs DMSO (competition) (log2 fold change); higher = less target engagement (more negative = stronger competition)
Conditions: THP-1, incubation time: 4 h
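Further: competitive profiling in live THP-1 cells: cysteine peptides tagged with an iodoacetamide desthiobiotin (IA-DTB) probe, intensity after compound treatment relative to DMSO-treated cells.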

Target | probe-labelled cysteine peptide fold change (10 µM) | probe-labelled cysteine peptide fold change (50 µM)
ARMC5_Q96C12_273_ACAEQLSLGGGLGPLVSLASHPK (UniProt Q96C12) | 0.113 | -0.586
ARHGAP30_Q7Z6I6_449_GLECPALQHRPSPASGPGPGPGLGPGPPDEK (UniProt Q7Z6I6) | -0.215 | -0.563
ARPC1A_Q92747_340_NTALETLHQNSITQVSIYEVDKQDCR (UniProt Q92747) | -0.0906 | -0.158
APRT_P07741_83_GFLFGPSLAQELGLGCVLIR (UniProt P07741) | 0.24 | 0.0921
ARHGAP30_Q7Z6I6_407_CAGVHISDPYNVNLPLHITSILSVPPNIISNVSLAR (UniProt Q7Z6I6) | -0.281 | 0.237
AQR_O60306_28_IVAPTVSQINAEFVTQLACK (UniProt O60306) | 0.0505 | -0.000724
APP_P05067_158_ETCSEK (UniProt P05067) | -0.247 | -0.328
ARHGEF40_Q8TER5_1233_EAGPELSSECR (UniProt Q8TER5) | -0.0103 | -0.622
ARID4A_P29374_211_DQCLVR (UniProt P29374) | -0.152 | -0.0451
ARHGEF10L_Q9HCE6_1236_EICSVAIISGGQGYR (UniProt Q9HCE6) | -0.0839 | -0.0779
APTX_Q7Z2E3_333+336_CHECQQLLPSIPQLK (UniProt Q7Z2E3) | -0.0163 | -0.255
ARID2_Q68CP9_1634_KPGQNFMCLWQSCK (UniProt Q68CP9) | -0.123 | -0.152
ARHGEF11_O15085_402_GVLCEAQEAAMPEIQEQIHDYR (UniProt O15085) | -0.242 | -0.0418

3 entries from above, as a markdown table:

| Target | probe-labelled cysteine peptide fold change (10 µM) | probe-labelled cysteine peptide fold change (50 µM) |
| --- | --- | --- |
| ARPC1A_Q92747_340_NTALETLHQNSITQVSIYEVDKQDCR (UniProt Q92747) | -0.0906 | -0.158 |
| APRT_P07741_83_GFLFGPSLAQELGLGCVLIR (UniProt P07741) | 0.24 | 0.0921 |
| ARHGAP30_Q7Z6I6_407_CAGVHISDPYNVNLPLHITSILSVPPNIISNVSLAR (UniProt Q7Z6I6) | -0.281 | 0.237 |
